Reference: PubChem BioAssay AID485298 (National Center for Advancing Translational Sciences (NCATS), 2010)
Out of some 320,000 compounds screened, about 740 (0.23%) were called active. Inconclusive results, whose numbers are uncertain, are shown with a selection of clear calls. Calls come from the whole dose curve; as a rule, active = well fitted activation curve with a large enough effect; inconclusive = small, poorly fitted or top-dose-only effect; inactive = no such curve, though single readings can be large or run the other way. A potency beside an inconclusive call is a rough fit, not a confirmed value.

test: qHTS Assay for Small Molecule Inhibitors of Mitochondrial Division or Activators of Mitochondrial Fusion; note: nearly all actives have a fitted effect of over 45% in size; settings: S. cerevisiae fusion-defective mutant growth rescue, CellTiterGlo 48 h; series mostly up to 46.1 µM
Procedure, shortened: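 Compounds are tested for their ability to restore growth of mitochondrial fusion-defective yeast strains at non-permissive 37C in YPEG medium over 48 hours. Viability is quantified by luciferase luminescence.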
Potency is the fitted concentration of half-maximal effect.

Row | SMILES | Potency
1 | COc1ccc(-c2nc3nc(SC)nn3cc2C)cc1F | inactive
2 | C=CCNC(=S)Nc1ccc(Cl)cc1 | inconclusive: 14.1 µM [activator, partial curve]
3 | CCNC(=O)NC(=O)COC(=O)c1ccccc1SCC(=O)NC(=O)NCC | inconclusive: 3.98 µM [activator, single point]
4 | O=[N+]([O-])c1cc([N+](=O)[O-])c2cccnc2c1Oc1ccccc1O | inactive
5 | O=C(NC1=NCCS1)c1cccc(OC(F)F)c1 | inconclusive: 17.8 µM [activator, single point]
6 | O=C(Cc1ccccc1)N1CCN(c2ccc([N+](=O)[O-])cc2)CC1 | inconclusive: 35.5 µM [activator, partial curve]
7 | O=C(CSc1nc2ccccc2s1)NNC(=S)Nc1ccc(Cl)cc1 | inconclusive: 35.5 µM [activator, single point]
8 | CC1CCN(c2ccc(C(F)(F)F)cc2N)CC1 | inconclusive: 6.31 µM [activator, single point]
9 | O=C(O)c1nn(CCOc2cccc(Br)c2)c(=O)c2ccccc12 | inconclusive: 31.6 µM [activator, single point]
10 | Cc1nc(C)c(-c2ccc(SCc3ccc(Cl)cc3)nn2)s1 | inconclusive: 14.1 µM [activator, single point]
11 | O=C(CCn1c(=O)sc2ccccc21)Nc1nc2ccccc2s1 | inconclusive: 20 µM [activator, single point]
12 | O=C1c2ccc(Cl)cc2S(=O)(=O)c2cccc(C(=O)N3CCC(Cc4ccccc4)CC3)c21 | inconclusive: 12.6 µM [activator, partial curve]
13 | O=C(c1ccco1)N1c2ccccc2Sc2ccccc21 | inconclusive: 12.6 µM [activator, partial curve]
14 | CC1CN(S(=O)(=O)c2cccc(C(=O)Nc3cc(Cl)ccc3N3CCOCC3)c2)CC(C)O1 (stereo not given) | inconclusive: 28.2 µM [activator, single point]
15 | CCCSc1nc(=S)n(Cc2ccccc2)c(C)c1C(C)=O | inactive
16 | COc1cc(/C=C/C(=O)O)cc(S(=O)(=O)Nc2ccccc2Oc2ccccc2)c1OC | inconclusive: 22.4 µM [activator, single point]
17 | COCCN(Cc1cn(C)nc1-c1ccccc1F)C(C)C | active: 5.62 µM
18 | O=C(O)c1cc(-c2ccc(/C=C3/SC(=S)N(Cc4ccccc4)C3=O)o2)ccc1Cl | inconclusive: 3.55 µM [activator, partial curve]
19 | CC(C)n1cc(/C=C2/NC(=O)N(c3cccc(Cl)c3)C2=O)c2ccccc21 | inconclusive: 35.5 µM [activator, single point]
20 | Cc1ccnc(NC(=O)COc2c(C)cc(C)cc2[N+](=O)[O-])c1 | inconclusive: 28.2 µM [activator, single point]
21 | O=C(Nc1cccc(-c2nnc(-c3ccccc3)o2)c1)c1ccc(Br)o1 | inconclusive: 15.8 µM [activator, partial curve]
22 | Cc1ccccc1CN1CCc2c(OCC(=O)N3CCCc4ccccc43)cccc2C1=O | inconclusive: 22.4 µM [activator, single point]
23 | CCN(CC)C(=O)c1sc(NC(=O)c2cc(-c3ccc(C)s3)nc3ccccc23)c(C(=O)OC)c1C | inactive
24 | COc1ccc(C(=O)CSc2nnc(-c3cc4ccccc4cc3O)n2Cc2ccco2)cc1 | inconclusive: 11.2 µM [activator, partial curve]

Random excerpt: five entries already listed.
Row | SMILES | Potency
13 | O=C(c1ccco1)N1c2ccccc2Sc2ccccc21 | inconclusive: 12.6 µM [activator, partial curve]
20 | Cc1ccnc(NC(=O)COc2c(C)cc(C)cc2[N+](=O)[O-])c1 | inconclusive: 28.2 µM [activator, single point]
6 | O=C(Cc1ccccc1)N1CCN(c2ccc([N+](=O)[O-])cc2)CC1 | inconclusive: 35.5 µM [activator, partial curve]
12 | O=C1c2ccc(Cl)cc2S(=O)(=O)c2cccc(C(=O)N3CCC(Cc4ccccc4)CC3)c21 | inconclusive: 12.6 µM [activator, partial curve]
24 | COc1ccc(C(=O)CSc2nnc(-c3cc4ccccc4cc3O)n2Cc2ccco2)cc1 | inconclusive: 11.2 µM [activator, partial curve]

Following part.

Row | SMILES | Potency
25 | Oc1ccc(-c2nc3ccc4ccccc4c3c3c2CCC3)cc1O | active: 15.8 µM
26 | CCOC(=O)c1c(NC(=O)C(C)OC(=O)C2=COCCO2)sc2c1CCCC2 (stereo not given) | inconclusive: 22.4 µM [activator, single point]
27 | Cc1c(C(=O)N/N=C/c2ccc(N(C)C)cc2)[nH]c2ccc(Cl)cc12 | inactive
28 | CCc1ccc(NC(=O)c2ccc3nc(N)sc3c2)cc1 | inconclusive: 17.8 µM [activator, partial curve, poor fit]
29 | C#CCOCCOCCOCCNc1nc(N2CCN(C(=O)CCCCCCCCCCNC(=O)[C@H](CCCCN)n3cc(C)nn3)CC2)nc(N2CCN(C(=O)CCCCCCCCCCNC(=O)[C@@H]([C@H](C)O)n3cc(C)nn3)CC2)n1 | inactive
30 | Cc1ccc(S(=O)(=O)N(C)CC(=O)Nc2nc3ccccc3s2)cc1 | inconclusive: 20 µM [activator, partial curve]
31 | O=C(OC(C(=O)Nc1cc(Cl)cc(Cl)c1)c1ccccc1)C1=COCCO1 (stereo not given) | inconclusive: 31.6 µM [activator, single point]
32 | Cc1c(C(=O)N2CCc3ccccc3C2)oc2ccc(Br)cc12 | inconclusive: 35.5 µM [activator, single point]
33 | COc1cccc(NC(=O)c2cc3c(=O)n4ccccc4nc3n(CC(C)C)c2=N)c1 | inactive
34 | OCCn1c(-c2ccc3c(c2)OCO3)csc1=Nc1ccccc1 | inactive
35 | Cc1cc(/C=C2/NC(=O)N(Cc3ccccc3F)C2=O)c(C)n1C | inactive
36 | CCc1nccn1S(=O)(=O)c1cc(OC)c(Cl)cc1OC | inconclusive: 12.6 µM [activator, partial curve]
37 | CCOc1ccc(Nc2oc(Cc3ccccc3)nc2C#N)cc1 | inconclusive: 12.6 µM [activator, single point]
38 | CCC(C)(C)C1CCc2[nH]nc(C(=O)NC3CCCC3)c2C1 (stereo not given) | inconclusive: 12.6 µM [activator, partial curve]
39 | CCOC(=O)N/N=C/c1cn(CCCOc2ccc(C)cc2)c2ccccc12 | inconclusive: 15.8 µM [activator, partial curve]
40 | Nc1ccc(N2CCCCC2)c(S(=O)(=O)Nc2ccc(Cl)cc2)c1 | inconclusive: 15.8 µM [activator, partial curve]
41 | N#C/C(=C\c1ccc(O)c([N+](=O)[O-])c1)c1nc2ccccc2s1 | inactive
42 | CC(C)CC(c1nnnn1Cc1cccs1)N1CCN(c2nc3ccccc3s2)CC1 (stereo not given) | inconclusive: 11.2 µM [activator, partial curve]
43 | CCOC(=O)C1=C[C@]2(CC)CCCN3CCc4c(n1c1ccccc41)[C@@H]32 | inconclusive: 23.1 µM [activator, single point]
44 | C(=C\c1cc(/C=C/c2ccccc2)ncn1)/c1ccccc1 | inactive
45 | CCCCn1c(N)c(N(CCOC)C(=O)c2cc3c(s2)CCC(C)C3)c(=O)[nH]c1=O (stereo not given) | inactive
46 | CCn1cc(C(=O)O)c(=O)c2cc(F)c(N3CCN(C(=S)NC(=O)c4ccc(Br)cc4)CC3)cc21 | inactive
47 | Cc1cc(C)cc(Oc2cc(NC(=O)c3cn(C)nc3C)cc([N+](=O)[O-])c2)c1 | inactive
48 | Cc1ccc(OCC(=O)N2CCN(c3nnc(-c4ccc(C)cc4)c4ccccc34)CC2)cc1 | inconclusive: 35.5 µM [activator, single point]

Row | SMILES | Potency
49 | O=C1C2C=CC=CC2=NC(=S)N1CCN1CCC(=C(c2ccc(F)cc2)c2ccc(F)cc2)CC1 (stereo not given) | active: 5.8 µM
50 | CCc1cc2c(-c3ccccc3)cc(=O)oc2c(CN2CCOCC2)c1O | inconclusive: 15.8 µM [activator, partial curve]
51 | COc1cccc(OC)c1OCCOc1ccc(C(=O)c2ccccc2)cc1 | inconclusive: 28.2 µM [activator, single point]
52 | O=C(COC(=O)c1cccs1)Nc1ccccc1[N+](=O)[O-] | inactive
53 | O=C(NNc1c2ccccc2nc2ccccc12)c1cccc(O)c1 | inactive
54 | Cc1cccc(COc2ccccc2C(=O)N(C)CC(=O)Nc2cccc(F)c2)c1 | inconclusive: 35.5 µM [activator, single point]
55 | O=C(O)c1ccc(OCc2cn3ccccc3n2)cc1 | inactive
56 | COc1cccc(NC(=O)CN(C)C(=O)c2ccc(-c3ccc(Cl)cc3)o2)c1 | inconclusive: 14.1 µM [activator, single point]
57 | Cc1ccc(-c2cn3cccnc3n2)cc1 | inconclusive: 12.6 µM [activator, partial curve]
58 | COc1ccccc1NC(=O)C(C)OC(=O)C1CCN(S(=O)(=O)c2ccc(C)c(C)c2)CC1 (stereo not given) | inconclusive: 12.6 µM [activator, partial curve]
59 | S=C(Nc1cccnc1)N1CCc2ccccc21 | inactive
60 | Cc1cccc(C(=O)CC(=O)c2cc(Cl)ccc2O)c1 | inactive
61 | O=C(COC(=O)c1ccc(S(=O)(=O)N2CCCC2)cc1)Nc1ccc(Cl)cc1 | inconclusive: 6.31 µM [activator, single point]
62 | CCCCC1CCC(C(=O)OCC(=O)N(CCOC)c2c(N)n(Cc3ccccc3)c(=O)[nH]c2=O)CC1 (stereo not given) | inactive
63 | C=CCSc1nc2c(C(=O)OCC)nnn2c2ccccc12 | inconclusive: 12.6 µM [activator, partial curve]
64 | Cc1ccccc1CN(CC(=O)Nc1cccc([N+](=O)[O-])c1)S(=O)(=O)c1ccc(Cl)cc1 | inconclusive: 12.6 µM [activator, partial curve]
65 | COc1ccc(-c2csc3ncnc(N4CCN(S(=O)(=O)c5ccc(C)cc5)CC4)c23)cc1 | inconclusive: 20 µM [activator, partial curve]
66 | COc1cc(NC(=O)C2CCCCC2)c2ncccc2c1 | inconclusive: 20 µM [activator, single point]
67 | COCCOC(=O)c1c(NC(=O)COC(=O)Cc2cccc(OC)c2)sc(C(N)=O)c1C | inactive
68 | O=C(Nc1nc(-c2ccccc2)cs1)c1ccc2c(=O)n3c(nc2c1)CCCCC3 | inactive
69 | Fc1ccccc1Nc1ncnc2c1nnn2Cc1ccccc1 | inactive
70 | CC(=O)c1c(C)[nH]c(C(=O)OCCOc2ccccc2)c1C | inconclusive: 20 µM [activator, partial curve]
